Results deposited as PubChem BioAssay AID1259405 (NCATS, 2018)

Purpose: 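Knock-downs that lift recombinant protein yield in hamster ovary cells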 (primary screen)
Cell system: Chinese hamster CHO-K1 ovary cells with stable secreted eGFP expression
Knock-down reagent: single siRNA against mouse genes, 0.8 pmol siRNA per well (2 µl of 400 nM stock)
Timing: 3 days
Measured: 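Percent of the per-plate non-targeting control median for intracellular GFP per well by laser scanning cytometry and for cell viability by ATP luminescence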
Reading the numbers: GFP, % of control: higher = more GFP per well, higher productivity; viability (ATP), % of control: higher = more viable cells (more ATP)
Hit rule: 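a knock-down is called active if GFP reaches 120% or more of non-targeting control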
Shown is a random part of about 50,000 deposited reagents. Of all reagents, about 4,000 (8%) got an active call. 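Mouse siRNA library applied to hamster cells; one well for each siRNA.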 Unmarked entries are inactive. Reagents against one gene are numbered here.

| Gene | reagent no. | GFP, % of control | viability (ATP), % of control |
| --- | --- | --- | --- |
| Isg15 (GeneID 100038882) | 1 | 57.7 | 53.2 |
| Isg15 (GeneID 100038882) | 2 | 89 | 39.5 |
| Isg15 (GeneID 100038882) | 3 | 68 | 75.5 |
| Cd151 (GeneID 12476) | 1 | 67.5 | 61.4 |
| Cd151 (GeneID 12476) | 2 | 53.1 | 61.1 |
| Cd151 (GeneID 12476) | 3 | 66.4 | 58.9 |
| Tmod1 (GeneID 21916) | 1 | 51.5 | 65 |
| Tmod1 (GeneID 21916) | 2 | 69 | 64 |
| Tmod1 (GeneID 21916) | 3 | 75.2 | 74.8 |
| Laptm4b (GeneID 114128) | 1 | 75 | 84.6 |
| Laptm4b (GeneID 114128) | 2 | 82.4 | 71.7 |
| Laptm4b (GeneID 114128) | 3 | 83 | 94.6 |
| Lars2 (GeneID 102436) | 1 | 73.5 | 81 |
| Lars2 (GeneID 102436) | 2 | 69.7 | 77.2 |
| Or8s10 (GeneID 258449) | 1 | 106 | 74 |
| Or8s10 (GeneID 258449) | 2 | 93.9 | 60.2 |
| Or8s10 (GeneID 258449) | 3 | 50.1 | 25.7 |
| Thnsl1 (GeneID 208967) | 1 | 118 | 104 |
| Thnsl1 (GeneID 208967) | 2 | 60.5 | 112 |
| Thnsl1 (GeneID 208967) | 3 | 77.9 | 96.3 |
| A730049H05Rik (GeneID 74516) | 1 | 78.2 | 65.1 |
| A730049H05Rik (GeneID 74516) | 2 | 106 | 92.1 |
| A730049H05Rik (GeneID 74516) | 3 | 124 (active) | 72.3 |
| Tnni3k (GeneID 435766) | 1 | 42.5 | 36.4 |
| Tnni3k (GeneID 435766) | 2 | 53.6 | 74 |
| Tnni3k (GeneID 435766) | 3 | 66.2 | 74.5 |
| Or10h28 (GeneID 258939) | 1 | 41.9 | 14.8 |
| Or10h28 (GeneID 258939) | 2 | 86.3 | 91.7 |
| Or10h28 (GeneID 258939) | 3 | 42.6 | 54.7 |
| Csnk1g2 (GeneID 103236) | 1 | 60.5 | 64.4 |
| Serpina3m (GeneID 20717) | 1 | 95 | 61.1 |
| Serpina3m (GeneID 20717) | 2 | 60 | 67.6 |
| Serpina3m (GeneID 20717) | 3 | 156 (active) | 146 |
| Tifab (GeneID 212937) | 1 | 83.9 | 103 |
| Tifab (GeneID 212937) | 2 | 69.8 | 75.7 |
| Tifab (GeneID 212937) | 3 | 112 | 107 |
| Foxf2 (GeneID 14238) | 1 | 88 | 86.7 |
| Foxf2 (GeneID 14238) | 2 | 126 (active) | 111 |
| Slx4 (GeneID 52864) | 1 | 53.4 | 43.3 |
| Slx4 (GeneID 52864) | 2 | 67.6 | 71.6 |
| Slx4 (GeneID 52864) | 3 | 166 (active) | 147 |
| Nmu (GeneID 56183) | 1 | 147 (active) | 84.2 |
| Nmu (GeneID 56183) | 2 | 81.7 | 88.6 |
| Nmu (GeneID 56183) | 3 | 65.1 | 74 |
| Hdac6 (GeneID 15185) | 1 | 66.7 | 77.5 |
| Hdac6 (GeneID 15185) | 2 | 72.4 | 74 |
| Spin1 (GeneID 20729) | 1 | 73.3 | 57.3 |
| Spin1 (GeneID 20729) | 2 | 104 | 164 |
| Spin1 (GeneID 20729) | 3 | 123 (active) | 128 |

The list goes on (13 carried over from the part before).
| Gene | reagent no. | GFP, % of control | viability (ATP), % of control |
| --- | --- | --- | --- |
| Foxf2 (GeneID 14238) | 1 | 88 | 86.7 |
| Foxf2 (GeneID 14238) | 2 | 126 (active) | 111 |
| Slx4 (GeneID 52864) | 1 | 53.4 | 43.3 |
| Slx4 (GeneID 52864) | 2 | 67.6 | 71.6 |
| Slx4 (GeneID 52864) | 3 | 166 (active) | 147 |
| Nmu (GeneID 56183) | 1 | 147 (active) | 84.2 |
| Nmu (GeneID 56183) | 2 | 81.7 | 88.6 |
| Nmu (GeneID 56183) | 3 | 65.1 | 74 |
| Hdac6 (GeneID 15185) | 1 | 66.7 | 77.5 |
| Hdac6 (GeneID 15185) | 2 | 72.4 | 74 |
| Spin1 (GeneID 20729) | 1 | 73.3 | 57.3 |
| Spin1 (GeneID 20729) | 2 | 104 | 164 |
| Spin1 (GeneID 20729) | 3 | 123 (active) | 128 |
| Slc3a2 (GeneID 17254) | 1 | 96.1 | 72 |
| Slc3a2 (GeneID 17254) | 2 | 47.6 | 76.7 |
| Slc3a2 (GeneID 17254) | 3 | 65.8 | 72.7 |
| Scarf1 (GeneID 380713) | 1 | 74.3 | 84 |
| Scarf1 (GeneID 380713) | 2 | 60.3 | 64.4 |
| Scarf1 (GeneID 380713) | 3 | 75.3 | 38.4 |
| Atp5f1b (GeneID 11947) | 1 | 87.1 | 101 |
| Atp5f1b (GeneID 11947) | 2 | 66.9 | 70.6 |
| Atp5f1b (GeneID 11947) | 3 | 65.1 | 53.4 |
| Fancg (GeneID 60534) | 1 | 120 (active) | 111 |
| Fancg (GeneID 60534) | 2 | 146 (active) | 110 |
| Fancg (GeneID 60534) | 3 | 87.7 | 67.3 |
| Batf2 (GeneID 74481) | 1 | 87.7 | 75.1 |
| Batf2 (GeneID 74481) | 2 | 103 | 34.5 |
| Batf2 (GeneID 74481) | 3 | 110 | 114 |
| Smox (GeneID 228608) | 1 | 121 (active) | 67 |
| Smox (GeneID 228608) | 2 | 77.3 | 52.5 |
| Smox (GeneID 228608) | 3 | 63.6 | 96.4 |
| Col27a1 (GeneID 373864) | 1 | 82.9 | 71.7 |
| Col27a1 (GeneID 373864) | 2 | 129 (active) | 75.5 |
| Col27a1 (GeneID 373864) | 3 | 93.2 | 70.8 |
| Gfm2 (GeneID 320806) | 1 | 0.177 | 10.1 |
| Gfm2 (GeneID 320806) | 2 | 115 | 111 |
| Gfm2 (GeneID 320806) | 3 | 131 (active) | 110 |
| Chordc1 (GeneID 66917) | 1 | 53.6 | 51.5 |
| Chordc1 (GeneID 66917) | 2 | 77.3 | 71.9 |
| Chordc1 (GeneID 66917) | 3 | 78.8 | 81.2 |
| Armc9 (GeneID 78795) | 1 | 135 (active) | 60.6 |
| Armc9 (GeneID 78795) | 2 | 116 | 84 |
| Armc9 (GeneID 78795) | 3 | 76.8 | 78.8 |
| Rpp30 (GeneID 54364) | 1 | 67.3 | 71.3 |
| Rpp30 (GeneID 54364) | 2 | 53.9 | 64 |
| Rpp30 (GeneID 54364) | 3 | 56.8 | 59 |
| Amhr2 (GeneID 110542) | 1 | 94.1 | 92.1 |
| Pnn (GeneID 18949) | 1 | 53.9 | 49.9 |
| Pnn (GeneID 18949) | 2 | 57.5 | 73.4 |
| Pnn (GeneID 18949) | 3 | 78.4 | 63.9 |
| Mcam (GeneID 84004) | 1 | 82.1 | 84.7 |
| Mcam (GeneID 84004) | 2 | 111 | 75.3 |
| Cdca4 (GeneID 71963) | 1 | 97 | 102 |
| Cdca4 (GeneID 71963) | 2 | 128 (active) | 97.2 |
| Cdca4 (GeneID 71963) | 3 | 94.1 | 117 |
| Kdm1b (GeneID 218214) | 1 | 46.5 | 63.6 |
| Kdm1b (GeneID 218214) | 2 | 62.8 | 73.1 |
| Kdm1b (GeneID 218214) | 3 | 92 | 99.5 |
| Rad9a (GeneID 19367) | 1 | 68.2 | 61.9 |
| Rad9a (GeneID 19367) | 2 | 93.6 | 78.2 |
| Rad9a (GeneID 19367) | 3 | 58.4 | 73.8 |
| Noxa1 (GeneID 241275) | 1 | 64.7 | 64.1 |
| Noxa1 (GeneID 241275) | 2 | 110 | 89.7 |
| Noxa1 (GeneID 241275) | 3 | 75.4 | 52.4 |
| Ncs1 (GeneID 14299) | 1 | 96.7 | 89.4 |
| Ncs1 (GeneID 14299) | 2 | 71.9 | 84.2 |
| Ncs1 (GeneID 14299) | 3 | 53.6 | 90.7 |
| Frmd3 (GeneID 242506) | 1 | 70.1 | 70.7 |
| Frmd3 (GeneID 242506) | 2 | 94.5 | 46.6 |
| Frmd3 (GeneID 242506) | 3 | 73.3 | 77.2 |
| Bltp3b (GeneID 75089) | 1 | 118 | 81.9 |
| Bltp3b (GeneID 75089) | 2 | 99.2 | 81 |
| Bltp3b (GeneID 75089) | 3 | 69.1 | 94.3 |
